The text below walks through data of publication PMC3970758, “A conserved MCM single-stranded DNA binding element is essential for replication initiation”.

For data set [1], the target named is T1, PfMCMN K233A (Pyrococcus furiosus) (UniProt Q8U3I4).
T1 sequence (looked up): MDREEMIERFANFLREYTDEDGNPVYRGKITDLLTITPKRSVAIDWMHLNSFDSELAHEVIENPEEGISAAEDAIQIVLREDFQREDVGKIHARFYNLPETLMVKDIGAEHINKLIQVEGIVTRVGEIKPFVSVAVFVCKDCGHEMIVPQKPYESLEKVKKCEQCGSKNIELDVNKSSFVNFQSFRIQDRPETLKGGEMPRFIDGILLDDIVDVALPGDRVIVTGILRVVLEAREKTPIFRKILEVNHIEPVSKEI
The data set can be described thus: EMSA. As to conditions: 5 mM Mg2+; EMSA: 20 mM HEPES pH 7.6, 200 mM NaCl, 5 mM MgCl2, 5 mM bME, 25 C, 30 min, 160 nM DNA; 4-20% TBE PAGE; recombinant protein; residues 1-256; protein details: His6-SUMO removed by Ulp1; label: 5'-fluorescein on strand 1. A general note: In EMSA bound probe runs differently from free probe, usually more slowly.

Data set [2] addresses T2, PfMCMN F202A (Pyrococcus furiosus) (UniProt Q8U3I4).
T2 sequence (looked up): T1 sequence (looked up) with F202A, A233K
The experiment in a line: EMSA. As to conditions: 5 mM Mg2+; EMSA: 20 mM HEPES pH 7.6, 200 mM NaCl, 5 mM MgCl2, 5 mM bME, 25 C, 30 min, 160 nM DNA; 4-20% TBE PAGE; recombinant protein; residues 1-256; protein details: His6-SUMO removed by Ulp1; label: 5'-fluorescein on strand 1.

Numbering of substitutions follows the chain as printed. For at least one entry, the source does not settle the construct or the ends of the probe. At least one verdict rests on a figure or table, not on a statement of the authors. Protein sequences can lack the tags named with them.

Turning to “ATGGCAGATCTCAATTGGATATCGGC (double strand) [26-mer dsDNA]”, the binding result in data set [1] and in data set [2] was “binds” throughout.
